The other results are listed elsewhere or left out.
Tests used:
Test in all cases: log2 fold change, soluble protein after heating vs DMSO (PISA); higher = thermal stabilisation; K562 lysate, 10 uM; active = over 0.2 and 3.5 SD of the protein, either way, in both replicates (recomputed)
erlotinib = compound: C#Cc1cccc(Nc2ncnc3cc(OCCOC)c(OCCOC)cc23)c1 [erlotinib]
Outline: (§1)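 Dounce homogenisation of K562 pellets in PBS pH 7.4 with 1 mM MgCl2 produced a crude extract, used at 1 mg/mL protein. Exposure to 10 μM compound lasted 30 min, and aliquots were then heated for 3 min across 48°C-58°C, pooled and brought to 0.5% NP-40 at 4°C. The supernatant after 21,000xg for 90 min was quantified by TMTpro 16plex LC-MS/MS with channel sums equalised. Duplicate values are given as log-two fold change in thermal stability relative to solvent controls.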

Protein sequences, listed by entry. Tags and fused reporters are not part of them. Lines headed by an entry give the natural chain unless they say otherwise; changes in a name come on top.
UniProt Q12893: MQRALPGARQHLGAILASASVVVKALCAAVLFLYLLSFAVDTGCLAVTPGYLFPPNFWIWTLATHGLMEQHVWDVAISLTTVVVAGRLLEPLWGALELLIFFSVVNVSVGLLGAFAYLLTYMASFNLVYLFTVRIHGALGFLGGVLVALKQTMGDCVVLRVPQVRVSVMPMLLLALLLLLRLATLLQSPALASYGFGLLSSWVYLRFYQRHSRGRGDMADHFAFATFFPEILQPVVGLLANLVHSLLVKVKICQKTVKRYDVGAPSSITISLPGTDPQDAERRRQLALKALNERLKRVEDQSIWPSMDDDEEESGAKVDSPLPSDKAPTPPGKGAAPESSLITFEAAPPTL
UniProt Q9BU02: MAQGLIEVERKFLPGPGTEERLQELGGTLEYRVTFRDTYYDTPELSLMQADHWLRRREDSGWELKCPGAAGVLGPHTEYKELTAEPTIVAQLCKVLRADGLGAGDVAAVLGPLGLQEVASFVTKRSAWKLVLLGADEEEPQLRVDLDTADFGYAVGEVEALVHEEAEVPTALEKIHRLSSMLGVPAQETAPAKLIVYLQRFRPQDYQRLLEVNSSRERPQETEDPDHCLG
UniProt Q9Y5J6: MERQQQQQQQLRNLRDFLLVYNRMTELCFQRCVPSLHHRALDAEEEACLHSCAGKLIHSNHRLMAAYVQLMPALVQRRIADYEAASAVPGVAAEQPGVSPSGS
UniProt Q9BV44: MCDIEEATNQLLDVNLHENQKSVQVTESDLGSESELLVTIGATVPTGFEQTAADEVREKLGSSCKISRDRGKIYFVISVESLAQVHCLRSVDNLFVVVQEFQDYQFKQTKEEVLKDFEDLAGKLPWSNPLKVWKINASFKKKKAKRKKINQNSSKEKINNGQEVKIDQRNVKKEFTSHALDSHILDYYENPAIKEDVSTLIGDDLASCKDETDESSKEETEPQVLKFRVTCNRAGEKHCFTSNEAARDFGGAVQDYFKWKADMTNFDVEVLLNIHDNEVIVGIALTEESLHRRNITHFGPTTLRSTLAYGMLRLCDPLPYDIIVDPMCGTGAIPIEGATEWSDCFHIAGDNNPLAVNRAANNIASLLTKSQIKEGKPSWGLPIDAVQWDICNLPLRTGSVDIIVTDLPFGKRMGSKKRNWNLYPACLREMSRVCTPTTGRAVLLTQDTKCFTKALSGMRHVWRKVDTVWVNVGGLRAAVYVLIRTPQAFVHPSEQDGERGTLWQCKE
UniProt Q8TDI8: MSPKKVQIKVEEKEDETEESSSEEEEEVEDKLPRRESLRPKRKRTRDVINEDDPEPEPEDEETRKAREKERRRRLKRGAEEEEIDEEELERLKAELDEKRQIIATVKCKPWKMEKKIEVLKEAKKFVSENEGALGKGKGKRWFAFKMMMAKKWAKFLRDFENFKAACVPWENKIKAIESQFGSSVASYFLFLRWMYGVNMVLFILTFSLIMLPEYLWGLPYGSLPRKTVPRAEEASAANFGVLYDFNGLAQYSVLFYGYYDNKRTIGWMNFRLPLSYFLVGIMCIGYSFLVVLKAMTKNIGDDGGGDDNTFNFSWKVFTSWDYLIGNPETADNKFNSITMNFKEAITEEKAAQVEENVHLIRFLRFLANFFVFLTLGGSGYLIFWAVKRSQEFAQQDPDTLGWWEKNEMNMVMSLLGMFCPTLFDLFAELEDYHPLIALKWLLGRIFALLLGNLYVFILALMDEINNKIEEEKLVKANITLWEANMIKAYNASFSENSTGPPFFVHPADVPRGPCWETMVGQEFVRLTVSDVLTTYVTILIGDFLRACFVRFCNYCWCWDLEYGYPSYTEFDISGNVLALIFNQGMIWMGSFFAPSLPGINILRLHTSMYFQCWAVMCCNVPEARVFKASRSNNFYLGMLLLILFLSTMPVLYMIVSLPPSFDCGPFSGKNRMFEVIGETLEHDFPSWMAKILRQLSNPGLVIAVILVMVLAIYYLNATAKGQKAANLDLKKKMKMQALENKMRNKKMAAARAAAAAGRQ
UniProt P31483: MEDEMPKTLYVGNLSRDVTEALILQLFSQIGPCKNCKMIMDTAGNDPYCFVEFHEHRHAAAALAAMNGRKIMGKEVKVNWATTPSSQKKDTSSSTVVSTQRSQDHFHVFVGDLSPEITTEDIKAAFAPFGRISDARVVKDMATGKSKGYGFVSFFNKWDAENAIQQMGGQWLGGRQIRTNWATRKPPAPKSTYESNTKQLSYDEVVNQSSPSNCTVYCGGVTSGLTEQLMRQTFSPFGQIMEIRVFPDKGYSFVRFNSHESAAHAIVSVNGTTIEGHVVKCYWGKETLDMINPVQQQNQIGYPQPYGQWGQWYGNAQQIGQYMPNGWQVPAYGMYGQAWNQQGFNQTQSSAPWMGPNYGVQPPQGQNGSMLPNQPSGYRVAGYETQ
UniProt Q96I45: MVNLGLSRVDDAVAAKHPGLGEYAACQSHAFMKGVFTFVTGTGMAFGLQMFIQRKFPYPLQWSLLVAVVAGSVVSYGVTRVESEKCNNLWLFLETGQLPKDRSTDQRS
UniProt Q53S58: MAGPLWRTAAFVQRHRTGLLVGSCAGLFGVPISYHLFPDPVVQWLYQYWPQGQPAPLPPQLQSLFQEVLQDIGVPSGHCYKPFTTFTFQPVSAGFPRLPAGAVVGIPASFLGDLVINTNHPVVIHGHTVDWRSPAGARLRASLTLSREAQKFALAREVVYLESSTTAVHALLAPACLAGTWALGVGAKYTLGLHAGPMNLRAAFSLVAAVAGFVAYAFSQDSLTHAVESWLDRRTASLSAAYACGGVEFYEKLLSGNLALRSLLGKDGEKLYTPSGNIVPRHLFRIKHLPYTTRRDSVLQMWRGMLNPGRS
UniProt Q8N131: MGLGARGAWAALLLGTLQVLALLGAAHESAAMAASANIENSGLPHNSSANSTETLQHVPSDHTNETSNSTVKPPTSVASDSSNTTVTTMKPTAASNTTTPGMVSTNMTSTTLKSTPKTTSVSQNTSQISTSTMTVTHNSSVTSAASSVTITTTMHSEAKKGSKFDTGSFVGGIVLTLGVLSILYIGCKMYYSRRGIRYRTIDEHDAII
UniProt Q9NQ88: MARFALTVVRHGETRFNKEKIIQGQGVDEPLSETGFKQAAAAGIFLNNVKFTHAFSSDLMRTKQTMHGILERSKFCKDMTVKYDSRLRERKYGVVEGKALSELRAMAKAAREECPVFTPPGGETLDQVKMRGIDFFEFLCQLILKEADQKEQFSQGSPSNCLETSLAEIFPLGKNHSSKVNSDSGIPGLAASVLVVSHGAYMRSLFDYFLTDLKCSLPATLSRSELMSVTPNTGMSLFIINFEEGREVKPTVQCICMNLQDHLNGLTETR
UniProt Q9Y2W1: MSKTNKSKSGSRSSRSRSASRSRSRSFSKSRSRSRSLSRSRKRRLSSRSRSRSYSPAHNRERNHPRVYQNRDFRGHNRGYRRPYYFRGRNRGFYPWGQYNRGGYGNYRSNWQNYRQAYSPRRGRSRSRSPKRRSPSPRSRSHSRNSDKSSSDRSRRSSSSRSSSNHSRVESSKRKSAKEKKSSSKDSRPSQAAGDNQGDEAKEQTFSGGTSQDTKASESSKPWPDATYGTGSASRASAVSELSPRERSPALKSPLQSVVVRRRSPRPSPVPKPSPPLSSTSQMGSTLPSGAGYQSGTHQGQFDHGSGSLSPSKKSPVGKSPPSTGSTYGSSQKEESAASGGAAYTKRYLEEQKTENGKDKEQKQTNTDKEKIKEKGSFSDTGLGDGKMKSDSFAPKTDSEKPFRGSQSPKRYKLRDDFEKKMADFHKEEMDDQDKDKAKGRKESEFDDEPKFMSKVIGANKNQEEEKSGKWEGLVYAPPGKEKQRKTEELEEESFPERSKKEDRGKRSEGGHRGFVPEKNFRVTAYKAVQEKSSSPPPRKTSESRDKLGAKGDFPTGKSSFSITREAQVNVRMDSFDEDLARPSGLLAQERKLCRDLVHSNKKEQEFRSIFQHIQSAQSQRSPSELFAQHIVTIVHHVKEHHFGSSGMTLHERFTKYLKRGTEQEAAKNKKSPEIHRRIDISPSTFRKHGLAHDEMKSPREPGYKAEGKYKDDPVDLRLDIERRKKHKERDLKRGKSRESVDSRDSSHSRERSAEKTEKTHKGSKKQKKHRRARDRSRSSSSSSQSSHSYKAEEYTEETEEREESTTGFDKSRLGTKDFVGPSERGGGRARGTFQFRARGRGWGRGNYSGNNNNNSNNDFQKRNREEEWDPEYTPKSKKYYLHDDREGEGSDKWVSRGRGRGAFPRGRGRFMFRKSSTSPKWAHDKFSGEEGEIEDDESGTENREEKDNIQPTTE

[1] = compound: C/C(=N\NC(=O)C1=CC(=CC=C1)S(=O)(=O)N2CCOCC2)/C3=C(C=CC(=C3)Cl)O
Outline: as §1

[2] = compound: C1=CC(=CC=C1C2=NC3=C(N2)C=C(C=C3)C(=O)N)OC4=CC=C(C=C4)Cl
Outline: as §1

[3] = compound: C1=CC2=C(C=CC(=C2)/C=C\3/C(=O)NC(=NCC4=CC=CS4)S3)N=C1
Outline: as §1

[4] = compound: C1=CC2=NC=CN=C2C=C1/C=C/3\C(=O)NC(=O)S3
Outline: as §1

[5] = compound: C1=CC=C(C=C1)C2=NC(=C(N2)C3=CC=NC=C3)C4=CC(=C(C=C4)Cl)O
Outline: as §1

[6] = compound: C1=CC=C2C(=C1)C3=NNC4=CC=CC(=C43)C2=O
Outline: as §1

[7] = compound: C1CCN(C1)C(=O)NC2=CC=CC(=C2)NC3=NC=C(C(=N3)NCCC4=CN=CN4)Br
Outline: as §1

[8] = compound: C1CN(CCC1(CC2=CC=C(C=C2)Cl)N)C3=NC=NC4=C3C=CN4
Outline: as §1

IRAK-1-4 Inhibitor I = compound: C1COCCN1CCN2C3=CC=CC=C3N=C2NC(=O)C4=CC(=CC=C4)[N+](=O)[O-] [IRAK-1-4 Inhibitor I]
Outline: as §1

ibrutinib = compound: C=CC(=O)N1CCC[C@@H](n2nc(-c3ccc(Oc4ccccc4)cc3)c3c(N)ncnc32)C1 [ibrutinib]
Outline: as §1

[9] = compound: CC(=O)c1cnc2ccc(-c3cc(Cl)c(O)c(Cl)c3)nc2c1N[C@H]1CC[C@H](CN(C)C)CC1
Outline: as §1

ralimetinib = compound: CC(C)(C)Cn1c(N)nc2ccc(-c3[nH]c(C(C)(C)C)nc3-c3ccc(F)cc3)nc21 [ralimetinib]
Outline: as §1

[10] = compound: CC(C)(O)CC(=O)NCCn1ccc2ncnc(Nc3ccc(Oc4cccc(C(F)(F)F)c4)c(Cl)c3)c21
Outline: as §1

[11] = compound: CC(C)C1=C2N=C(C=C(N2N=C1)NCC3=CC=CC=C3)NCCCCCCN
Outline: as §1

[12] = compound: CC1=C(C(CC(=O)N1)C2=CC=C(C=C2)C(F)(F)F)C(=O)NC3=C(C=C4C(=C3)C=NN4)F
Outline: as §1

[13] = compound: CC1=C(C2=C(C=C1)C(=O)C3=CC=CC=C3N2CCCN)C
Outline: as §1

[14] = compound: CC1=C(C=C(C=C1)NC(=O)C2=CC(=CC=C2)C(C)(C)C#N)NC3=CC4=C(C=C3)N=CN(C4=O)C
Outline: as §1

[15] = compound: CC1=C(C=C(C=C1)NC(=O)C2=CC(=CC=C2)N(C)C)NC(=O)C3=CC=C(C=C3)O
Outline: as §1

[16] = compound: CC1=CC=C(C=C1)SC2=C3C=C(SC3=CN=C2)C(=O)N
Outline: as §1

Target: TMEM115 (UniProt Q12893)
- log2 fold change (erlotinib): inactive: -0.015
- log2 fold change [1]: inactive: 0
- log2 fold change [2]: inactive: -0.053
- log2 fold change [3]: inactive: 0.04
- log2 fold change [4]: inactive: -0.02
- log2 fold change [5]: inactive: -0.021
- log2 fold change [6]: inactive: 0.044
- log2 fold change [7]: inactive: -0.01
- log2 fold change [8]: inactive: 0.023
- log2 fold change (IRAK-1-4 Inhibitor I): inactive: 0.056
- log2 fold change (ibrutinib): inactive: 0.062
- log2 fold change [9]: inactive: -0.022
- log2 fold change (ralimetinib): inactive: -0.003
- log2 fold change [10]: inactive: -0.004
- log2 fold change [11]: inactive: -0.041
- log2 fold change [12]: inactive: -0.01
- log2 fold change [13]: inactive: -0.004
- log2 fold change [14]: inactive: 0.056
- log2 fold change [15]: inactive: 0.05
- log2 fold change [16]: inactive: 0.087

Target: THTPA (UniProt Q9BU02)
- log2 fold change (erlotinib): inactive: -0.096
- log2 fold change [1]: inactive: -0.055
- log2 fold change [2]: inactive: 0.024
- log2 fold change [3]: inactive: -0.043
- log2 fold change [4]: inactive: 0.099
- log2 fold change [5]: inactive: 0.033
- log2 fold change [6]: inactive: -0.056
- log2 fold change [7]: inactive: -0.072
- log2 fold change [8]: inactive: 0.003
- log2 fold change (IRAK-1-4 Inhibitor I): inactive: 0.026
- log2 fold change (ibrutinib): inactive: 0.014
- log2 fold change [9]: inactive: 0.079
- log2 fold change (ralimetinib): inactive: 0.021
- log2 fold change [10]: inactive: 0.039
- log2 fold change [11]: inactive: 0.007
- log2 fold change [12]: inactive: 0.007
- log2 fold change [13]: inactive: -0.031
- log2 fold change [14]: inactive: 0.011
- log2 fold change [15]: inactive: -0.048
- log2 fold change [16]: inactive: -0.05

Target: TIMM10B (UniProt Q9Y5J6)
- log2 fold change (erlotinib): inactive: 0.116
- log2 fold change [1]: inactive: 0.07
- log2 fold change [2]: inactive: -0.083
- log2 fold change [3]: inactive: 0.033
- log2 fold change [4]: inactive: 0.078
- log2 fold change [5]: inactive: -0.006
- log2 fold change [6]: inactive: 0.103
- log2 fold change (IRAK-1-4 Inhibitor I): inactive: -0.049
- log2 fold change (ibrutinib): inactive: -0.027
- log2 fold change (ralimetinib): inactive: 0.065
- log2 fold change [10]: inactive: -0.077
- log2 fold change [11]: inactive: -0.048
- log2 fold change [13]: inactive: -0.02
- log2 fold change [14]: inactive: 0.104
- log2 fold change [15]: inactive: -0.045

Target: THUMPD3 (UniProt Q9BV44)
- log2 fold change (erlotinib): inactive: 0.007
- log2 fold change [1]: inactive: 0.031
- log2 fold change [2]: inactive: 0.067
- log2 fold change [3]: inactive: 0.009
- log2 fold change [4]: inactive: -0.009
- log2 fold change [5]: inactive: 0.024
- log2 fold change [6]: inactive: 0.015
- log2 fold change [7]: inactive: 0
- log2 fold change [8]: inactive: 0.034
- log2 fold change (IRAK-1-4 Inhibitor I): inactive: 0.042
- log2 fold change (ibrutinib): inactive: -0.022
- log2 fold change [9]: inactive: -0.014
- log2 fold change (ralimetinib): inactive: -0.012
- log2 fold change [10]: inactive: -0.021
- log2 fold change [11]: inactive: 0.007
- log2 fold change [12]: inactive: -0.015
- log2 fold change [13]: inactive: -0.015
- log2 fold change [14]: inactive: 0.028
- log2 fold change [15]: inactive: -0.01
- log2 fold change [16]: inactive: -0.009

Target: TMC1 (UniProt Q8TDI8)
- log2 fold change (erlotinib): inactive: -0.028
- log2 fold change [1]: inactive: -0.001
- log2 fold change [2]: inactive: -0.007
- log2 fold change [3]: inactive: 0.013
- log2 fold change [5]: inactive: -0.072
- log2 fold change [6]: inactive: -0.071
- log2 fold change [7]: inactive: -0.148
- log2 fold change [8]: inactive: -0.081
- log2 fold change (IRAK-1-4 Inhibitor I): inactive: 0.099
- log2 fold change [9]: inactive: -0.016
- log2 fold change (ralimetinib): inactive: 0.156
- log2 fold change [10]: inactive: -0.185
- log2 fold change [11]: inactive: 0.204
- log2 fold change [12]: inactive: -0.034
- log2 fold change [14]: inactive: -0.104
- log2 fold change [15]: inactive: 0.017
- log2 fold change [16]: inactive: -0.045

Target: TIA1 (UniProt P31483)
- log2 fold change (erlotinib): inactive: 0
- log2 fold change [1]: inactive: -0.01
- log2 fold change [2]: inactive: 0.134
- log2 fold change [3]: inactive: -0.051
- log2 fold change [4]: inactive: -0.009
- log2 fold change [5]: inactive: -0.055
- log2 fold change [6]: inactive: 0
- log2 fold change [7]: inactive: 0
- log2 fold change [8]: inactive: -0.055
- log2 fold change (IRAK-1-4 Inhibitor I): inactive: 0.005
- log2 fold change (ibrutinib): inactive: -0.02
- log2 fold change [9]: inactive: -0.006
- log2 fold change (ralimetinib): inactive: -0.017
- log2 fold change [10]: inactive: 0.038
- log2 fold change [11]: inactive: -0.056
- log2 fold change [12]: inactive: -0.07
- log2 fold change [13]: inactive: 0.08
- log2 fold change [14]: inactive: -0.163
- log2 fold change [15]: inactive: -0.045
- log2 fold change [16]: inactive: 0.017

Target: TMEM141 (UniProt Q96I45)
- log2 fold change (erlotinib): inactive: 0.037
- log2 fold change [1]: inactive: -0.102
- log2 fold change [2]: inactive: 0.153
- log2 fold change [3]: inactive: 0.081
- log2 fold change [4]: inactive: -0.032
- log2 fold change [5]: inactive: -0.056
- log2 fold change [6]: inactive: 0.005
- log2 fold change (IRAK-1-4 Inhibitor I): inactive: 0.056
- log2 fold change (ibrutinib): inactive: -0.069
- log2 fold change [9]: inactive: -0.035
- log2 fold change (ralimetinib): inactive: -0.126
- log2 fold change [10]: inactive: -0.243
- log2 fold change [11]: inactive: -0.049
- log2 fold change [12]: inactive: 0.108
- log2 fold change [13]: inactive: -0.161
- log2 fold change [14]: inactive: 0.021
- log2 fold change [15]: inactive: 0.025
- log2 fold change [16]: inactive: -0.089

Target: TMEM177 (UniProt Q53S58)
- log2 fold change (erlotinib): inactive: 0.042
- log2 fold change [1]: inactive: 0.06
- log2 fold change [2]: inactive: -0.042
- log2 fold change [3]: inactive: 0.016
- log2 fold change [4]: inactive: -0.019
- log2 fold change [5]: inactive: -0.054
- log2 fold change [6]: inactive: 0.148
- log2 fold change [7]: inactive: 0.019
- log2 fold change [8]: inactive: 0.005
- log2 fold change (IRAK-1-4 Inhibitor I): inactive: 0
- log2 fold change (ibrutinib): inactive: 0.079
- log2 fold change [9]: inactive: -0.022
- log2 fold change (ralimetinib): inactive: -0.287
- log2 fold change [10]: active: -0.311
- log2 fold change [11]: inactive: 0.007
- log2 fold change [14]: inactive: -0.03
- log2 fold change [15]: inactive: 0.032
- log2 fold change [16]: inactive: -0.005

Target: TMEM123 (UniProt Q8N131)
- log2 fold change (erlotinib): inactive: -0.083
- log2 fold change [1]: inactive: 0.077
- log2 fold change [2]: inactive: -0.102
- log2 fold change [3]: inactive: 0.01
- log2 fold change [4]: inactive: 0.07
- log2 fold change [5]: inactive: 0.006
- log2 fold change [6]: inactive: 0.036
- log2 fold change [7]: inactive: 0.052
- log2 fold change [8]: inactive: -0.034
- log2 fold change (IRAK-1-4 Inhibitor I): inactive: 0.041
- log2 fold change (ibrutinib): inactive: 0.1
- log2 fold change [9]: inactive: 0.044
- log2 fold change (ralimetinib): inactive: 0.067
- log2 fold change [10]: inactive: -0.024
- log2 fold change [11]: inactive: 0.02
- log2 fold change [12]: inactive: -0.021
- log2 fold change [13]: inactive: 0.074
- log2 fold change [15]: inactive: -0.017
- log2 fold change [16]: inactive: 0.019

Target: TIGAR (UniProt Q9NQ88)
- log2 fold change (erlotinib): inactive: -0.008
- log2 fold change [1]: inactive: 0.219
- log2 fold change [2]: inactive: -0.023
- log2 fold change [3]: inactive: -0.143
- log2 fold change [5]: inactive: -0.146
- log2 fold change [6]: inactive: 0.145
- log2 fold change [7]: inactive: 0.052
- log2 fold change [8]: inactive: 0.059
- log2 fold change (IRAK-1-4 Inhibitor I): inactive: 0.257
- log2 fold change (ralimetinib): inactive: 0.28
- log2 fold change [10]: inactive: 0.068
- log2 fold change [11]: inactive: 0.041
- log2 fold change [13]: inactive: -0.018
- log2 fold change [14]: inactive: 0.169
- log2 fold change [15]: inactive: -0.207

Target: THRAP3 (UniProt Q9Y2W1)
- log2 fold change (erlotinib): inactive: -0.017
- log2 fold change [1]: inactive: 0.014
- log2 fold change [2]: inactive: -0.023
- log2 fold change [3]: inactive: -0.012
- log2 fold change [4]: inactive: 0.002
- log2 fold change [5]: inactive: 0.015
- log2 fold change [6]: inactive: -0.024
- log2 fold change [7]: inactive: 0.005
- log2 fold change [8]: inactive: 0.006
- log2 fold change (IRAK-1-4 Inhibitor I): inactive: 0.005
- log2 fold change (ibrutinib): inactive: -0.057
- log2 fold change [9]: inactive: -0.021
- log2 fold change (ralimetinib): inactive: -0.042
- log2 fold change [10]: inactive: -0.007
- log2 fold change [11]: inactive: -0.007
- log2 fold change [12]: inactive: -0.043
- log2 fold change [13]: inactive: -0.079
- log2 fold change [14]: inactive: 0.012
- log2 fold change [15]: inactive: 0.017
- log2 fold change [16]: inactive: -0.01

— the supplement of paper PMC10849652
